This note sets out measurements from publication PMC5239461.

These are yes or no findings as the source states them, for the method shown. Some binding calls cover weakened binding; strength is not graded here.

The experiment addresses STAT3 (human (endogenous in CRC cell lines)), P40763. Kind of experiment: native gel or EMSA; extracts of CRC cell lines with or without IL-6 (10 ng/ml, 20 min) on the SIEm67 STAT1/3 response element; pre-incubation with STAT1 and/or STAT3 specific antibodies for supershift. The conditions noted are these: remark: other sources report otherwise.

B1: STAT1, P42224 1-750 (protein)
chain: MSQWYELQQLDSKFLEQVHQLYDDSFPMEIRQYLAQWLEKQDWEHAANDVSFATIRFHDLLSQLDDQYSRFSLENNFLLQHNIRKSKRNLQDNFQEDPIQMSMIIYSCLKEERKILENAQRFNQAQSGNIQSTVMLDKQKELDSKVRNVKDKVMCIEHEIKSLEDLQDEYDFKCKTLQNREHETNGVAKSDQKQEQLLLKKMYLMLDNKRKEVVHKIIELLNVTELTQNALINDELVEWKRRQQSACIGGPPNACLDQLQNWFTIVAESLQQVRQQLKKLEELEQKYTYEHDPITKNKQVLWDRTFSLFQQLIQSSFVVERQPCMPTHPQRPLVLKTGVQFTVKLRLLVKLQELNYNLKVKVLFDKDVNERNTVKGFRKFNILGTHTKVMNMEESTNGSLAAEFRHLQLKEQKNAGTRTNEGPLIVTEELHSLSFETQLCQPGLVIDLETTSLPVVVISNVSQLPSGWASILWYNMLVAEPRNLSFFLTPPCARWAQLSEVLSWQFSSVTKRGLNVDQLNMLGEKLLGPNASPDGLIPWTRFCKENINDKNFPFWLWIESILELIKKHLLPLWNDGCIMGFISKERERALLKDQQPGTFLLRFSESSREGAITFTWVERSQNGGEPDFHAVEPYTKKELSAVTFPDIIRNYKVMAAENIPENPLKYLYPNIDKDHAFGKYYSRPKEAPEPMELDGPKGTGYIKTELISVSEVHPSRLQTTDNLLPMSPEEFDEVSRIVGSVEFDSMMNTV
Turning to B1, the binding entry is on record as “binds”.
